PubChem BioAssay AID2685 (National Center for Advancing Translational Sciences (NCATS), 2010)
This is one part of the list. These are further read-outs of the screen, such as a control signal, another cell line or another target. No call is given for them. Most of these compounds were active or inconclusive in the main read-out, so they are no random draw. Potencies come from curve fits of mixed quality, noted in brackets.

Assay: qHTS Assay for Lipid Storage Modulators in Drosophila S3 Cells;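 on cell number change: cells counted by Cell Tracker Red CMTPX staining in the red channel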
Conditions: BODIPY lipid droplet fluorescence, 18-24 h; for cell number change: measured here: cell count max response, cells fed with added oleic acid
Outline: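 Drosophila S3 cells got compounds at several concentrations plus oleic acid (400 uM solution). Laser-scanning cytometry with 488 nm excitation read lipid droplets at 500-530 nm and cells at 575-640 nm. Percent activity was relative to 20 uM Triacsin C.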

[1] = measured here: lipid fluorescence (Fed channel) AC50, cells fed with added oleic acid
[2] = measured here: cell number channel AC50, cells fed with added oleic acid

SMILES | cell number change | AC50 [1] | AC50 [2]
COc1cc(OC)cc(-c2c(C#Cc3ccsc3)c3cc(-c4ccc5cc[nH]c5c4)ccc3n2C)c1 | 14.2% | 1.3 µM [rising, full curve] | 
CCCCNc1c(-c2ccc(OC)c(SC3CCCCC3)c2)nc2cc(C)ccn12 | -89.4% | 32.6 µM [falling, single point] | 20.6 µM [falling, partial curve]
CN(C1CCCC1)C1CCN(C(=O)CNC(=O)/C=C/c2ccc(F)cc2)CC1 | 1.03% | 0.58 µM [falling, single point] | 
CC(Oc1cccc(Cl)c1)C(=O)Nc1cc(S(=O)(=O)N2CCCCC2)ccc1N1CCOCC1 (stereo not drawn) | 15.4% | 1.03 µM [rising, partial curve] | 0.731 µM [rising, full curve, poor fit]
Cc1ccc(-c2cn(CCN)c(-c3ccc(Cl)nc3)n2)cc1 | -3.17% | 0.00411 µM [falling, full curve, poor fit] | 
Cc1ccccc1NC(=S)N(CCCN1CCOCC1)Cc1cccnc1 |  | 3.66 µM [rising, single point] | 
Cc1cc(C)cc(OCC(=O)OC(C)C(=O)Nc2ccc(Cl)cn2)c1 (stereo not drawn) | -9.64% |  | 
CC(=O)Nc1ccc(-c2nn[nH]n2)cc1Cl | 5.95% |  | 5.17 µM [falling, partial curve]
CCCCN1C(=O)/C(=C(/C#N)C(N)=O)c2ccccc21 | -26.3% | 18.4 µM [falling, partial curve] | 
Cc1occc1-c1nnc(SCCCC(=O)c2ccc(F)cc2)n1C | -10.9% |  | 
CC1CCCC(C)N1C(=O)COC(=O)COc1ccccc1C#N (stereo not drawn) | -3.88% | 29.1 µM [falling, single point] | 
COc1ccc(S(=O)(=O)N2CCN(C(=O)c3cnc(C)cn3)CC2)cc1 | 23.5% | 0.82 µM [falling, single point] | 
COc1ccc(Nc2cccc3ccccc23)cc1 | -46.6% | 0.00517 µM [rising, full curve, poor fit] | 29.1 µM [falling, single point]
Cc1cccc(NCC(=O)N/N=C\c2cccn2C)c1 | 4.98% |  | 0.184 µM [falling, full curve, poor fit]
Cc1noc(C)c1CSc1nc2sc3c(c2c(=O)n1C)CCCC3 | 28.3% |  | 
CCOC(=O)c1ccc(NC(=O)NS(=O)(=O)c2ccc(C)cc2)cc1 | -12.8% | 0.731 µM [rising, full curve, poor fit] | 
C=CCn1c(SCC(=O)NCC(=O)OCC)nnc1-c1cccc(OC)c1 | 30.9% | 29.1 µM [rising, single point] | 25.9 µM [rising, single point]
Cc1cccc(Nc2nnc(SCC(=O)c3ccc(Br)s3)s2)c1C | 21.6% | 5.8 µM [rising, partial curve] | 
COc1cccc(C2=CC(=O)C[C@H](c3ccc(OC)c(OC)c3)C2)c1 | -13.4% | 13 µM [falling, partial curve] | 

Entries of single compounds, looked up by structure:
COc1ccc(S(=O)(=O)N2CCN(C(=O)c3cnc(C)cn3)CC2)cc1 reads cell number change: 23.5%; AC50 [1]: 0.82 µM [falling, single point]
COc1ccc(Nc2cccc3ccccc23)cc1 reads cell number change: -46.6%; AC50 [1]: 0.00517 µM [rising, full curve, poor fit]; AC50 [2]: 29.1 µM [falling, single point]
CCCCNc1c(-c2ccc(OC)c(SC3CCCCC3)c2)nc2cc(C)ccn12 reads cell number change: -89.4%; AC50 [1]: 32.6 µM [falling, single point]; AC50 [2]: 20.6 µM [falling, partial curve]
CN(C1CCCC1)C1CCN(C(=O)CNC(=O)/C=C/c2ccc(F)cc2)CC1 reads cell number change: 1.03%; AC50 [1]: 0.58 µM [falling, single point]

Continuation.

SMILES | cell number change | AC50 [1] | AC50 [2]
CCOP(=O)(OCC)c1ccc2c(c1)C(=O)c1ccccc1CC2 | 12.8% | 0.651 µM [falling, single point] | 0.82 µM [falling, single point]
CN1/C(=C/C(=S)NC(=O)C2(C)CC2(Cl)Cl)C(C)(C)c2ccccc21 (stereo not drawn) | -73.8% | 22.4 µM [falling, partial curve] | 14.1 µM [falling, partial curve]
COc1cc(OC)cc(-c2n[nH]c(=S)n2-c2cc(OC)ccc2OC)c1 |  | 6.51 µM [rising, single point] | 6.51 µM [rising, single point]
O=C1/C(=C\c2ccc(O)c(O)c2)C(c2ccccc2)=NN1c1ccccc1 | 15.6% |  | 
CC(NC(=O)c1ccccc1Cl)NC(=O)c1ccccc1Cl | 17.5% | 6.51 µM [rising, single point] | 
COc1ccc(OC(C)C(=O)Nc2cccc([N+](=O)[O-])c2)cc1 (stereo not drawn) | 21.9% | 20.6 µM [rising, single point] | 
CCOc1ccc(S(=O)(=O)N2CCCC(C(=O)Nc3cccc(C)c3)C2)cc1 (stereo not drawn) |  | 29.1 µM [falling, single point] | 
COc1ccc(S(=O)(=O)N2CCCCC2)cc1NS(=O)(=O)c1cc(Cl)ccc1Cl | -4.94% |  | 
CCn1c(SCc2cc(=O)[nH]c3ccccc23)nnc1C1CC1 | 182% |  | 23.1 µM [rising, partial curve]
CC(=O)CSc1ccc(S(=O)(=O)N2CCN(C)CC2)cn1 | 11.8% | 13 µM [rising, partial curve, poor fit] | 
Cc1cc(-c2ccc3ccccc3c2)n2ncnc2n1 | 7.56% |  | 
COc1cc(/C=C/C(=O)OCC(=O)Nc2cc(S(=O)(=O)N3CCCCC3)ccc2C)ccc1O |  | 6.51 µM [rising, single point] | 
CCOc1ccccc1-n1nnnc1SCC(=O)Nc1cc(C)on1 | -12.9% |  | 0.13 µM [falling, partial curve, poor fit]
COC(=O)c1ccc2c(=O)n(CCCCCC(=O)N3CCN(c4ccc(F)cc4)CC3)c(=O)[nH]c2c1 | -30.5% | 9.2 µM [falling, partial curve] | 0.058 µM [falling, full curve, poor fit]
CCOC(=O)C1CCN(C(=O)COc2ccc(N(C)S(=O)(=O)c3ccc(C)cc3)cc2)CC1 |  | 0.00651 µM [falling, full curve, poor fit] | 
CCCCCN(C(=O)CCC(=O)OCc1ccccc1F)c1c(N)n(CCCC)c(=O)[nH]c1=O | -75% |  | 20.6 µM [falling, single point]
CS(=O)(=O)c1ccc(C(=O)Nc2ccc(S(=O)(=O)N3CCCCC3)cc2)cc1 | -50% | 29.1 µM [falling, single point] | 16.4 µM [falling, single point]
Nc1ccc(S(=O)(=O)N2CCCC2)cc1Cl | -17.4% | 0.82 µM [falling, partial curve, poor fit] | 
CC(=NCCc1ccccc1)C1=C(O)COC1=O | -9.79% | 20.6 µM [falling, single point] | 2.31 µM [falling, partial curve]

SMILES | cell number change | AC50 [1] | AC50 [2]
COc1ccccc1NC(=O)c1cc[n+](C)cc1 | -10.4% |  | 
COC(=O)C/C=C/[C@@H](C)[C@@H](/C=N/OC[C@H]1O[C@H](c2ccccc2)C=C[C@@H]1Oc1ccc(OC)cc1)NS(=O)(=O)c1ccc(C)cc1 | 26.2% | 14.6 µM [rising, partial curve] | 
Cc1ccc(C(=O)OCC(=O)N2CCNC2=O)c(C)c1 | -9.5% |  | 
CCOc1cc(C(=O)Nc2ccccc2F)cc(Br)c1OCC |  |  | 0.116 µM [falling, full curve, poor fit]
Cc1ccc(Nc2nc(N)nc(CN3CCN(Cc4ccc5c(c4)OCO5)CC3)n2)cc1Cl | -47.5% | 29.1 µM [falling, single point] | 14.6 µM [falling, partial curve, poor fit]
CN(C)CCNC(=O)C12CC3(C)CC(C)(CC(C)(C3)C1)C2 | -36.9% | 0.231 µM [falling, partial curve, poor fit] | 16.4 µM [falling, single point]
Cc1ccc(C(=O)N/C(=C\c2ccco2)C(=O)NCCCN2CCOCC2)cc1C | 32.1% |  | 5.8 µM [rising, full curve, poor fit]
Cc1sc(NC(=O)COc2cccc(-n3cnnn3)c2)c(C#N)c1C | 55.8% | 3.66 µM [rising, full curve] | 3.26 µM [rising, full curve]
O=C(NCCc1ccccc1)C1=COCCO1 | 12.6% |  | 
COc1cc(/C=N/N(C)C2=NS(=O)(=O)c3ccccc32)cc(OC)c1OC | 3.78% | 0.651 µM [falling, full curve, poor fit] | 
CCn1c(=O)c2c(nc3n2CC(C)CN3CCc2ccccc2)n(C)c1=O (stereo not drawn) | -31.8% |  | 5.8 µM [falling, full curve, poor fit]
CCN(CC)C(=O)CSC1=C(C#N)C(c2ccco2)C(C(=O)OCCOC)=C(C)N1 (stereo not drawn) | 18.2% | 0.082 µM [rising, full curve, poor fit] | 
COc1cc(C(=O)OC(C)C(=O)NC2CCCCC2C)c([N+](=O)[O-])cc1OC (stereo not drawn) | -38.8% | 16.4 µM [falling, single point] | 20.6 µM [falling, single point]
COc1ccc(-c2c(-c3ccc(OC)c(C)c3O)n[nH]c2C)cc1 | -59.3% | 11.6 µM [rising, partial curve, poor fit] | 11.6 µM [falling, partial curve, poor fit]
CCc1cc(C(=O)N2CCN(S(=O)(=O)c3cc(C)ccc3C)CC2)sc1C |  | 18.4 µM [falling, partial curve] | 
COCCNC(=O)CC(c1ccccc1)c1ccccc1 | -19.1% | 14.6 µM [falling, partial curve] | 1.3 µM [falling, partial curve]
Cc1ccc(OCCC(=O)NNC(=O)c2cc(C)oc2C)cc1 | -13.7% | 0.259 µM [rising, full curve] | 
CCNc1nc(NC(C)C)nc(N(n2cnnc2)S(=O)(=O)c2ccc(C)cc2)n1 | 0.367% |  | 0.92 µM [rising, full curve]
COc1ccc(/C=N/n2cnnc2SCc2ccc(OC)cc2)cc1 |  |  | 6.51 µM [rising, single point]
